According to patent publication US20060172360A1:
Results are given in words; binding and its absence hold for the method and conditions named. For part of these data: Binding seen in cells or lysates may run through a third protein. Some binding calls cover weakened binding; strength is not graded here. Where a sequence is shown, tags or fusion partners need not be part of it.

The chains behind the UniProt entries cited, without tags or fusion partners.
UniProt O14733: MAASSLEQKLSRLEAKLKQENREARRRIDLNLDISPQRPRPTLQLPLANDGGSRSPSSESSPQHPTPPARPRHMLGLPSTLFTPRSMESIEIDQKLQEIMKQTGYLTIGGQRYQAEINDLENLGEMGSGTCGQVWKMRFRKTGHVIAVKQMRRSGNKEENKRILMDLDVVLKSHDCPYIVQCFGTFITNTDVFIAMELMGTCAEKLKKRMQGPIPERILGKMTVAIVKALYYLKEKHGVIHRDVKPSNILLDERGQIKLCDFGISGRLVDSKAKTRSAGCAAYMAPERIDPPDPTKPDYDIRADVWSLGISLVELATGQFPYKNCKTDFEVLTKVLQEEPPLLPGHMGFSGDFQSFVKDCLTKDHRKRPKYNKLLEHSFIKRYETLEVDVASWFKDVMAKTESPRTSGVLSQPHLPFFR

Assays:
[1] = target: FLAG-MKK7 (human MAP kinase kinase 7 ligated with FLAG-tag at its N-terminus) (human) (UniProt O14733); assay: co-expression in HEK293T cells, immunoprecipitation with anti-HA affinity matrix, western blot with anti-FLAG M2
[2] = target: FLAG-MKK7 (human MAP kinase kinase 7 ligated with FLAG-tag at its N-terminus) (human) (UniProt O14733); assay: co-immunoprecipitation and western blot (FIG. 7)
[3] = target: FLAG-MKK7 (human MAP kinase kinase 7 ligated with FLAG-tag at its N-terminus) (human) (UniProt O14733); assay: summary of co-immunoprecipitation and kinase assays

binding [1]: binds
binding [2]: binds
binding [3]: binds
B1: HA-JIK (human JNK/SAPK-inhibitory kinase ligated with HA-tag at its N-terminus) (enzyme, UniProt Q9H2K8 1-898, looked up, not shown: small tags and cut ends)
chain: MRKGVLKDPEIADLFYKDDPEELFIGLHEIGHGSFGAVYFATNAHTSEVVAIKKMSYSGKQTHEKWQDILKEVKFLRQLKHPNTIEYKGCYLKEHTAWLVMEYCLGSASDLLEVHKKPLQEVEIAAITHGALHGLAYLHSHALIHRDIKAGNILLTEPGQVKLADFGSASMASPANSFVGTPYWMAPEVILAMDEGQYDGKVDIWSLGITCIELAERKPPLFNMNAMSALYHIAQNDSPTLQSNEWTDSFRRFVDYCLQKIPQERPTSAELLRHDFVRRDRPLRVLIDLIQRTKDAVRELDNLQYRKMKKILFQETRNGPLNESQEDEEDSEHGTSLNREMDSLGSNHSIPSMSVSTGSQSSSVNSMQEVMDESSSELVMMHDDESTINSSSSVVHKKDHVFIRDEAGHGDPRPEPRPTQSVQSQALHYRNRERFATIKSASLVTRQIHEHEQENELREQMSGYKRMRRQHQKQLIALENKLKAEMDEHRLKLQKEVETHANNSSIELEKLAKKQVAIIEKEAKVAAADEKKFQQQILAQQKKDLTTFLESQKKQYKICKEKIKEEMNEDHSTPKKEKQERISKHKENLQHTQAEEEAHLLTQQRLYYDKNCRFFKRKIMIKRHEVEQQNIREELNKKRTQKEMEHAMLIRHDESTRELEYRQLHTLQKLRMDLIRLQHQTELENQLEYNKRRERELHRKHVMELRQQPKNLKAMEMQIKKQFQDTCKVQTKQYKALKNHQLEVTPKNEHKTILKTLKDEQTRKLAILAEQYEQSINEMMASQALRLDEAQEAECQALRLQLQQEMELLNAYQSKIKMQTEAQHERELQKLEQRVSLRRAHLEQKIEEELAALQKERSERIKNLLERQEREIETFDMESLRMGFGNLVTLDFPKEDYR
